Data: patent US10590336B2, “Methods of using novel organic acid compositions in the oil and gas industry” (FLUID ENERGY GROUP LTD., priority 2015, dated 2020)
Structures can show the parent of a compound that is named as a salt.

Key:
[1] = Corrosion testing on chromed stainless steel coupons; conditions: 55° C., 72 hours
[2] = Corrosion testing on aluminum; conditions: 55° C., 72 hours
[3] = Corrosion testing on chrome coupons; conditions: Chrome 13, 55° C., 72 hours

Cl [15% HCl, hydrochloric acid]
Lb/ft2 [1]: 0.189 Lb/ft2
Loss weight [1]: 3.071 g
Lb/ft2 [2]: 0.410 Lb/ft2
Loss weight [2]: 6.311 g
Lb/ft2 [3]: 0.767 Lb/ft2
Loss weight [3]: 11.544 g

CS(=O)(=O)O [MSA (70%), methanesulfonic acid]
Lb/ft2 [1]: 0.043 Lb/ft2
Loss weight [1]: 0.693 g
Lb/ft2 [2]: 0.001 Lb/ft2
Loss weight [2]: 0.018 g
Lb/ft2 [3]: 0.035 Lb/ft2
Loss weight [3]: 0.534 g
